# According to PMC9130861:
# By UniProt entry, the sequences of proteins in these tests, tags left out.
# UniProt Q9L0L0: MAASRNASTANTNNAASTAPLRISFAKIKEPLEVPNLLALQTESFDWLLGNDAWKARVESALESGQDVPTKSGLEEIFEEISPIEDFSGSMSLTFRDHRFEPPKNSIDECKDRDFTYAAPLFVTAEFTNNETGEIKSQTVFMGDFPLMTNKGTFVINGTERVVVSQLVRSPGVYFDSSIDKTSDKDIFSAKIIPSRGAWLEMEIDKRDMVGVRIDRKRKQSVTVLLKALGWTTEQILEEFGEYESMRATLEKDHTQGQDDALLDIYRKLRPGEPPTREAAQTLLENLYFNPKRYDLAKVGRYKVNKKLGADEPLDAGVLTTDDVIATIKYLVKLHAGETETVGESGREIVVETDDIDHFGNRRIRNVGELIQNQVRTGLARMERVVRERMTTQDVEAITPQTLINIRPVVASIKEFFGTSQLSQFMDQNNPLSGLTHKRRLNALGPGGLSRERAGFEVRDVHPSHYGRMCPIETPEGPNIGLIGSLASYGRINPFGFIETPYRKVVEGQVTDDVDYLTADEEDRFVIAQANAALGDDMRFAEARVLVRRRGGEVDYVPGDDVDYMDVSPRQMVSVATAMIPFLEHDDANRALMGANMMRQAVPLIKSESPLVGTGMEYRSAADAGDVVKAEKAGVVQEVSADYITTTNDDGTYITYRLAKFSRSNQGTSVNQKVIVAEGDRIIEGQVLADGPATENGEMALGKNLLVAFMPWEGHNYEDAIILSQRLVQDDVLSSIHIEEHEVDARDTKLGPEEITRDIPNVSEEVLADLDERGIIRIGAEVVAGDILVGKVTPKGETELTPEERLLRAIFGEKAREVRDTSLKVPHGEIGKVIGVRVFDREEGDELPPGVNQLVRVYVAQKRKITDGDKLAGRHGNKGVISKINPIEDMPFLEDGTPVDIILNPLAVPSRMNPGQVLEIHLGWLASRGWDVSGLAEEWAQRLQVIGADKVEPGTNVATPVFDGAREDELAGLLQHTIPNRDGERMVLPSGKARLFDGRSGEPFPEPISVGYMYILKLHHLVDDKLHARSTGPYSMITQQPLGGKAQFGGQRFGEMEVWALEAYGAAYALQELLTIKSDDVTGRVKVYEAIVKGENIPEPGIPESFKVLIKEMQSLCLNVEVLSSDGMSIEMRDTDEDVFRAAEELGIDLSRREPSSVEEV
# UniProt Q8CJT1: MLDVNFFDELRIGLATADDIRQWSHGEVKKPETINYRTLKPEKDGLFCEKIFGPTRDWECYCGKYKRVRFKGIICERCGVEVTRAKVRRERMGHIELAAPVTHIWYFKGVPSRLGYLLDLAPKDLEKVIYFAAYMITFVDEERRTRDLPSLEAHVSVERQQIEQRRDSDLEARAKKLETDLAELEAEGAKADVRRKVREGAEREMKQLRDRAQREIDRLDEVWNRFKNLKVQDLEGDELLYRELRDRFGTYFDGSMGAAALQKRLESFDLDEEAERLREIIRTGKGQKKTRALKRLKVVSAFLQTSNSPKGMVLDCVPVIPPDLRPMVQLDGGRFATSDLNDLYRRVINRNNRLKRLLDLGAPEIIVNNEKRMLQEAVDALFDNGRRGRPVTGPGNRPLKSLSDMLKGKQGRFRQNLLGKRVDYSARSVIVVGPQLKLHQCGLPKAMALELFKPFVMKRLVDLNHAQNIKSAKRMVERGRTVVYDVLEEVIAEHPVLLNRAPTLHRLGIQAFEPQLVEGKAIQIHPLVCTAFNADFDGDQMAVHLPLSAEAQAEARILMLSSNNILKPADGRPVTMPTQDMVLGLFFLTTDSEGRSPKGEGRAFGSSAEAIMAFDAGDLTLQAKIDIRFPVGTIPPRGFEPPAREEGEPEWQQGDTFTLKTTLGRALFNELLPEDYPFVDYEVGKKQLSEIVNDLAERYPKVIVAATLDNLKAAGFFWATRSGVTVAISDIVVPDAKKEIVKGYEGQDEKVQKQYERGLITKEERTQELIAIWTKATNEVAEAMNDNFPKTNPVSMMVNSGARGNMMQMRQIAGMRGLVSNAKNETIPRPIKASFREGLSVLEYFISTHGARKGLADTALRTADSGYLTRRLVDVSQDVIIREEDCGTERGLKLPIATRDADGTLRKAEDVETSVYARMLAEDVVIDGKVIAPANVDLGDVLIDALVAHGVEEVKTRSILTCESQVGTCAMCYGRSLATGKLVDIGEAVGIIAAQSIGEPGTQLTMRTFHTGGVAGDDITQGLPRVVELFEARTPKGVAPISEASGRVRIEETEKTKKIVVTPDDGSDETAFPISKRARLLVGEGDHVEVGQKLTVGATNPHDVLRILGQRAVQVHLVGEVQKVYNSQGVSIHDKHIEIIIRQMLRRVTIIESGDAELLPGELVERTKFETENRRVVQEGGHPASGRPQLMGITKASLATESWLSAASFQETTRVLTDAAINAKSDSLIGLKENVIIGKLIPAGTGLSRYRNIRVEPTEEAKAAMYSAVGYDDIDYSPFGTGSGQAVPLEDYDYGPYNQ
# These are yes or no findings as the source states them, for the method shown. Binding seen in cells or lysates may run through a third protein. Some binding calls cover weakened binding; strength is not graded here. Tags and fused reporters may be left off the sequences shown.
# T1: HA-tagged HrdB (primary sigma factor of S. coelicolor) (S. coelicolor) (UniProt P18183)
# T1 sequence: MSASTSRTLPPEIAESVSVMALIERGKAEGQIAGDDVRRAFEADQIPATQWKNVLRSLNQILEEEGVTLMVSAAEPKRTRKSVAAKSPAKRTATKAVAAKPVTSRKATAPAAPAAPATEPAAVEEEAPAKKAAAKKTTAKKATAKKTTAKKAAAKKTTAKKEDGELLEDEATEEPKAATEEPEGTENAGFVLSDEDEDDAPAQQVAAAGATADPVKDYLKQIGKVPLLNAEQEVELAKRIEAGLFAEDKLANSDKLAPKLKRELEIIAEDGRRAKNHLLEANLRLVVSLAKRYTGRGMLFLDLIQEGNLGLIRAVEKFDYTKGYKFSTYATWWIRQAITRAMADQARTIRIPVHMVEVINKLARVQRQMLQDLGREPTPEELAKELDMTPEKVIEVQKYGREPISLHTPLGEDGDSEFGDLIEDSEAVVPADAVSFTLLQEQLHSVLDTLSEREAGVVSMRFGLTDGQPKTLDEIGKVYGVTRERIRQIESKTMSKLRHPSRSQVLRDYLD
# B1: RNA polymerase α subunit (S. coelicolor) (protein, UniProt P60312 1-340)
# chain: MLIAQRPSLTEEVVDEFRSRFVIEPLEPGFGYTLGNSLRRTLLSSIPGAAVTSIRIDGVLHEFTTVPGVKEDVTDLILNIKQLVVSSEHDEPVVMYLRKQGPGLVTAADIAPPAGVEVHNPDLVLATLNGKGKLEMELTVERGRGYVSAVQNKQVGQEIGRIPVDSIYSPVLKVTYKVEATRVEQRTDFDKLIVDVETKQAMRPRDAMASAGKTLVELFGLARELNIDAEGIDMGPSPTDAALAADLALPIEELELTVRSYNCLKREGIHSVGELVARSEADLLDIRNFGAKSIDEVKAKLAGMGLALKDSPPGFDPTAAADAFGADDDADAGFVETEQY
# Biological target: T1, HA-tagged HrdB (primary sigma factor of S. coelicolor) (S. coelicolor)
# Assay: co-IP; lysates (500 μg protein) of S. coelicolor expressing HA-tagged HrdB, 42 h and 66 h after germination; anti-HA antibody (clone HA-7) on Protein G plus agarose beads, 16-18 h at 4°C; washed 4 times with 20 mM Tris-HCl pH 7.9, 150 mM KCl, 1 mM MgCl2; eluted proteins on SDS-PAGE stained with Coomassie, band identities verified by mass spectrometry
row,Molecule,binding
1,RNA polymerase β subunit (S. coelicolor) (from UniProt Q9L0L0 1-1161),binds
2,RNA polymerase β′ subunit (S. coelicolor) (from UniProt Q8CJT1 1-1299),binds
3,B1,binds
